US20230295108A1, “ARYLTETRAHYDROPYRIDINE DERIVATIVE OR SALT THEREOF, INSECTICIDAL AGENT CONTAINING THE COMPOUND, AND METHOD OF USE THEREOF” (NIHON NOHYAKU CO., LTD., priority 2020, published 2023)
Some entries share one result that the patent states for a list of compounds.

Key:
Type in all cases: in vivo
[1] = system: Small Brown Planthopper (Laodelphax striatella); experiment: Insecticidal test on small brown planthopper, rice seedling dip; settings: 500 ppm dispersion, rice seedlings dipped 30 seconds, 3rd-instar larvae, 8 days after inoculation
[2] = system: Western Flower thrips (Frankliniella occidentalis); experiment: Insecticidal test on western flower thrips, kidney bean leaf pieces; settings: 500 ppm dispersion applied to hatched larvae on kidney bean leaf pieces, 4 days after treatment
[3] = system: Diamondback Moth (Plutella xylostella); experiment: Insecticidal test on diamondback moth, egg/seedling dip; settings: 500 ppm dispersion, Chinese cabbage seedlings with eggs dipped about 30 seconds, hatched larvae counted 6 days after treatment, 25° C.

O=C(Nc1ccc(F)cc1)C1=C(O)CC(c2ccc(C(F)(F)F)nc2)NC1=O (stereo not drawn) [1-128, N-(4-fluorophenyl)-4-hydroxy-2-oxo-6-(6-trifluoromethylpyridin-3-yl)-1,2,5,6-tetrahydropyridine-3-carboxamide]
A (the mortality rate is 100%.): insecticidal efficacy (corrected mortality rate, criteria) [1] | insecticidal efficacy (mortality rate, criteria) [2] | insecticidal efficacy (mortality rate, criteria) [3]

O=C(Nc1ccc(F)cc1)C1=C([O-])CC(c2ccc(C(F)(F)F)nc2)NC1=O.[Na+] (stereo not drawn) [1-129, Sodium Salt of N-(4-fluorophenyl)-4-hydroxy-2-oxo-6-(6-trifluoromethylpyridin-3-yl)-1,2,5,6-tetrahydropyridine-3-carboxamide]
A (the mortality rate is 100%.): insecticidal efficacy (corrected mortality rate, criteria) [1] | insecticidal efficacy (mortality rate, criteria) [2] | insecticidal efficacy (mortality rate, criteria) [3]

O=C(Nc1ccc(F)cc1)C1=C(O)CC(c2ccc(C(F)(F)F)nc2)NC1=S (stereo not drawn) [3-1, N-(4-fluorophenyl)-4-hydroxy-6-thioxo-2-(6-trifluoromethylpyridin-3-yl)-1,2,5,6-tetrahydropyridine-5-carboxamide]
A (the mortality rate is 100%.): insecticidal efficacy (corrected mortality rate, criteria) [1] | insecticidal efficacy (mortality rate, criteria) [2] | insecticidal efficacy (mortality rate, criteria) [3]

O=C1NC(c2ccc(C(F)(F)F)nc2)C=C(O)C1C(=S)Nc1ccc(F)cc1 (stereo not drawn) [3-6, N-(4-fluorophenyl)-4-hydroxy-6-oxo-2-(6-trifluoromethylpyridin-3-yl)-1,2,5,6-tetrahydropyridine-5-carbothioamide]
A (the mortality rate is 100%.): insecticidal efficacy (corrected mortality rate, criteria) [1] | insecticidal efficacy (mortality rate, criteria) [2] | insecticidal efficacy (mortality rate, criteria) [3]
